Taken from: PubChem BioAssay AID1259405 (NCATS, 2018)

- Purpose: 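Knock-downs that lift recombinant protein yield in hamster ovary cells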 (primary screen)
- Cells: Chinese hamster CHO-K1 ovary cells with stable secreted eGFP expression
- Knock-down reagent: single siRNA against mouse genes, 0.8 pmol siRNA per well (2 µl of 400 nM stock)
- Duration: 3 days
- Measurement: 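Per-well intracellular GFP measured by laser scanning cytometry, plus viability from ATP luminescence, each relative to plate median of non-targeting control wells, in %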
- Direction: GFP, % of control: higher = more GFP per well, higher productivity; viability (ATP), % of control: higher = more viable cells (more ATP)
- Hit rule: 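Called active when intracellular GFP, relative to negative control, is at or above 120%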
This is a random part of about 50,000 deposited reagents. Of all reagents, about 4,000 (8%) got an active call. 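Mouse siRNA library applied to hamster cells; one well for each siRNA.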 Reagents against one gene are numbered here.

Rnf139 (GeneID 75841) #1 gave GFP, % of control 66.2; viability (ATP), % of control 29.2; inactive.
Silencing of Rnf139 (GeneID 75841) #2 came out at: GFP, % of control 117; viability (ATP), % of control 73.5; inactive.
Rnf139 (GeneID 75841) #3 scored GFP, % of control 102; viability (ATP), % of control 124; inactive.
With knock-down of Rps20 (GeneID 67427) #1 the results were GFP, % of control 65; viability (ATP), % of control 62.8; inactive.
After knock-down of Rps20 (GeneID 67427) #2, the screen gave GFP, % of control 64.2; viability (ATP), % of control 31.1; inactive.
With knock-down of Rps20 (GeneID 67427) #3, the screen gave GFP, % of control 60.2; viability (ATP), % of control 46.3; inactive.
Twist2 (GeneID 13345) #1 gave GFP, % of control 108; viability (ATP), % of control 84.4; inactive.
After knock-down of Twist2 (GeneID 13345) #2, the screen gave GFP, % of control 109; viability (ATP), % of control 95.4; inactive.
Against Twist2 (GeneID 13345) #3 the deposit lists GFP, % of control 68.4; viability (ATP), % of control 73.1; inactive.
Against Vmn1r32 (GeneID 171188) #1, the values are GFP, % of control 58.3; viability (ATP), % of control 55.6; inactive.
Depletion of Vmn1r32 (GeneID 171188) #2 gave: GFP, % of control 64; viability (ATP), % of control 55.8; inactive.
Knock-down of Vmn1r32 (GeneID 171188) #3 came out at: GFP, % of control 104; viability (ATP), % of control 116; inactive.
For Tcaf1 (GeneID 77574) #1, the entry reads GFP, % of control 64.1; viability (ATP), % of control 88.9; inactive.
Tcaf1 (GeneID 77574) #2 scored GFP, % of control 54.9; viability (ATP), % of control 66.9; inactive.
After knock-down of Tcaf1 (GeneID 77574) #3, the record shows GFP, % of control 93.5; viability (ATP), % of control 115; inactive.

Records listed so far whose target name starts with T or t (6):
Twist2 (GeneID 13345) #1 — GFP, % of control = 108; viability (ATP), % of control = 84.4; Call = inactive
Twist2 (GeneID 13345) #2 — GFP, % of control = 109; viability (ATP), % of control = 95.4; Call = inactive
Twist2 (GeneID 13345) #3 — GFP, % of control = 68.4; viability (ATP), % of control = 73.1; Call = inactive
Tcaf1 (GeneID 77574) #1 — GFP, % of control = 64.1; viability (ATP), % of control = 88.9; Call = inactive
Tcaf1 (GeneID 77574) #2 — GFP, % of control = 54.9; viability (ATP), % of control = 66.9; Call = inactive
Tcaf1 (GeneID 77574) #3 — GFP, % of control = 93.5; viability (ATP), % of control = 115; Call = inactive

Next records follow:
H2-T24 (GeneID 15042) #1 showed GFP, % of control 34.6; viability (ATP), % of control 45.1; inactive.
Knock-down of H2-T24 (GeneID 15042) #2 resulted in: GFP, % of control 86.9; viability (ATP), % of control 79.2; inactive.
With knock-down of H2-T24 (GeneID 15042) #3, the screen gave GFP, % of control 62.4; viability (ATP), % of control 66.1; inactive.
With knock-down of Nxnl1 (GeneID 234404) #1 the results were GFP, % of control 79.8; viability (ATP), % of control 75.3; inactive.
With knock-down of Nxnl1 (GeneID 234404) #2, the record shows GFP, % of control 106; viability (ATP), % of control 79.1; inactive.
Against Nxnl1 (GeneID 234404) #3, the values are GFP, % of control 84.2; viability (ATP), % of control 72.4; inactive.
Sh3gl1 (GeneID 20405) #1 gave GFP, % of control 127; viability (ATP), % of control 63.1; active.
Sh3gl1 (GeneID 20405) #2 gave GFP, % of control 56.8; viability (ATP), % of control 45.5; inactive.
Depletion of Sh3gl1 (GeneID 20405) #3 resulted in: GFP, % of control 76.9; viability (ATP), % of control 83.4; inactive.
Depletion of Slc6a18 (GeneID 22598) #1 gave: GFP, % of control 31.4; viability (ATP), % of control 25.3; inactive.
Against Slc6a18 (GeneID 22598) #2 the deposit lists GFP, % of control 131; viability (ATP), % of control 88.1; active.
With knock-down of Slc6a18 (GeneID 22598) #3, the screen gave GFP, % of control 121; viability (ATP), % of control 77.6; active.
After knock-down of Pdxp (GeneID 57028) #1, the record shows GFP, % of control 131; viability (ATP), % of control 72.2; active.
After knock-down of Pdxp (GeneID 57028) #2 the results were GFP, % of control 49.3; viability (ATP), % of control 47.6; inactive.
Against Pdxp (GeneID 57028) #3 the deposit lists GFP, % of control 58.2; viability (ATP), % of control 34.6; inactive.
Silencing of Ankrd34a (GeneID 545554) #1 gave: GFP, % of control 54.1; viability (ATP), % of control 68.7; inactive.
Knock-down of Ankrd34a (GeneID 545554) #2 came out at: GFP, % of control 54.1; viability (ATP), % of control 92.1; inactive.
Against Ankrd34a (GeneID 545554) #3, the entry reads GFP, % of control 79.9; viability (ATP), % of control 33.4; inactive.
Against Oscp1 (GeneID 230751) #1, the entry reads GFP, % of control 95.3; viability (ATP), % of control 51.9; inactive.
Against Oscp1 (GeneID 230751) #2, the entry reads GFP, % of control 116; viability (ATP), % of control 66.3; inactive.
Knock-down of Oscp1 (GeneID 230751) #3 gave: GFP, % of control 68.8; viability (ATP), % of control 85.8; inactive.
After knock-down of Ppp2r5e (GeneID 26932) #1, the screen gave GFP, % of control 224; viability (ATP), % of control 123; active.
With knock-down of Ppp2r5e (GeneID 26932) #2, the screen gave GFP, % of control 83.2; viability (ATP), % of control 82.2; inactive.
Depletion of Ppp2r5e (GeneID 26932) #3 came out at: GFP, % of control 151; viability (ATP), % of control 85.3; active.
Against Ppib (GeneID 19035) #1, the values are GFP, % of control 91.4; viability (ATP), % of control 86; inactive.
Ppib (GeneID 19035) #2 gave GFP, % of control 73.8; viability (ATP), % of control 71.4; inactive.
Ppib (GeneID 19035) #3 showed GFP, % of control 19.4; viability (ATP), % of control 28.4; inactive.
